Test results taken from patent publication US20200093922A1 (AGENCY FOR SCIENCE TECHNOLOGY AND RESEARCH, published 2020).
No constants are given. Whether binding was seen depends on the method and setting. Some entries that bind do so weakly or less than the wild type.

Amino acid sequences for entries named in this document (tags omitted). A change or cut given only in a name is not applied to a line headed by its entry. Chains listed by the source or under a name are the forms on record and can include a tag or linker. Residues count along the entry.
UniProt Q9NZQ7: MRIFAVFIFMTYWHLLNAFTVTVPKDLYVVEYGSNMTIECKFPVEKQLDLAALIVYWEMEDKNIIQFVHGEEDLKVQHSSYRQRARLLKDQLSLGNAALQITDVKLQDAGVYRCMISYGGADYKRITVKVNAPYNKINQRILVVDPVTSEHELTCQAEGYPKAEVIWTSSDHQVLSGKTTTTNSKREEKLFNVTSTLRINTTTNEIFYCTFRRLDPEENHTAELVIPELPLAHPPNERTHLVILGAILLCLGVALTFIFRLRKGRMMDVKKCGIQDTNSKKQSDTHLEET
human PD-L1 expressed on transfected HEK 293 cells: residues 19-290 of Q9NZQ7
UniProt Q9EP73: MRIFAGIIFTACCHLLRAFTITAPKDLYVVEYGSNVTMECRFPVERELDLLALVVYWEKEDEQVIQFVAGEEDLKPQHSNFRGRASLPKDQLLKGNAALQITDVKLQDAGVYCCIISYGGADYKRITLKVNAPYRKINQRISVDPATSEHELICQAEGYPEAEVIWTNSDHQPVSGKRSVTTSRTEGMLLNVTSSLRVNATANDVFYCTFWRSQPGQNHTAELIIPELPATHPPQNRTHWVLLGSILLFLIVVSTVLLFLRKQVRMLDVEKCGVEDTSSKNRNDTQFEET
cynomolgus PD-L1 (G7PSE7, form named): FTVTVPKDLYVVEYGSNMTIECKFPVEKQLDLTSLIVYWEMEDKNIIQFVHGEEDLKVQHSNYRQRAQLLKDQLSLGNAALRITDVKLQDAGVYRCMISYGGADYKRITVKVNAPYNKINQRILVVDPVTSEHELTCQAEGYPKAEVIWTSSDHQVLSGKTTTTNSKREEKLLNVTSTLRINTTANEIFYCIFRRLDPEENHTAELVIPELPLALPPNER

Columns and labels:
[1] = molecular target: PD-L1 on MDA-MB-231 human breast cancer cells (human) (UniProt Q9NZQ7); assay: flow cytometry on MDA-MB-231 cells (FIG. 20)
[2] = molecular target: PD-L1 on MDA-MB-231 human breast cancer cells (human) (UniProt Q9NZQ7); assay: flow cytometry on MDA-MB-231 cells expressing PD-L1, MFI against IgG1 (nM)
[3] = molecular target: T1, biotinylated human PD-L1 (human, UniProt Q9NZQ7 19-238, limits assumed, biotinylated (site not stated)); assay: ELISA: antibody coated, biotinylated human PD-L1 titrated, streptavidin-HRP (FIG. 19A)
[4] = molecular target: biotinylated murine PD-L1 (murine, UniProt Q9EP73 19-238, limits assumed, biotinylated (site not stated)); assay: blocking ELISA of murine PD-L1 binding to murine PD-1 (blocked partner), Example 3
[5] = molecular target: T1, biotinylated human PD-L1; assay: avidity ELISA: biotinylated human PD-L1 on neutravidin, antibody titrated, anti-human Fc-HRP (FIG. 19B)
[6] = molecular target: human PD-L1 expressed on transfected HEK 293 cells (human) (UniProt Q9NZQ7); assay: flow cytometry blocking assay: antibody mixed with human PD-1-PE (blocked partner), added to HEK293 cells transfected with human PD-L1
[7] = molecular target: cynomolgus PD-L1 (cynomolgus) (UniProt G7PSE7); assay: ELISA on different antigens (FIG. 15)
[8] = molecular target: human PD-L1 (ELISA antigen, construct not stated) (human) (UniProt Q9NZQ7); assay: ELISA on different antigens (FIG. 15)
[9] = molecular target: mouse PD-L1 (ELISA antigen of Example 8, construct not stated) (mouse) (UniProt Q9EP73); assay: ELISA on different antigens (FIG. 15)
[10] = molecular target: mouse PD-L1 (ELISA antigen of Example 8, construct not stated) (mouse) (UniProt Q9EP73); assay: recap of earlier binding results in Example 11
[11] = molecular target: cynomolgus PD-L1 (cynomolgus) (UniProt G7PSE7); assay: ELISA on coated antigen (sheet label cyPD-L1-Fc)
[12] = molecular target: human PD-L1 (ELISA antigen, construct not stated) (human) (UniProt Q9NZQ7); assay: ELISA on coated antigen (sheet label huPD-L1-Fc)
[13] = molecular target: mouse PD-L1 (ELISA antigen of Example 8, construct not stated) (mouse) (UniProt Q9EP73); assay: ELISA on coated antigen (sheet label moPD-L1-Fc)
[14] = molecular target: PD-L1 (blocking ELISA of Example 13) (Homo sapiens (Human)) (UniProt Q9NZQ7); assay: blocking ELISA: antibody pre-incubated with PD-L1, added to coated PD-1 (blocked partner), PD-1-bound PD-L1 detected
[15] = molecular target: T1, biotinylated human PD-L1; assay: ELISA: antibody coated at 2 ug/mL, biotinylated human PD-L1 titrated (x axis Human PD-L1, nM), streptavidin-HRP
Method: Binding was measured by ELISA. Antibodies were coated onto maxisorp plates at 2 μg/mL in coating buffer and incubated overnight at 4° C. The next day, plates were washed with wash buffer (PBS+0.05% Tween-20), and blocker with casein for 1 hour, at room temperature. Plates were then washed again using wash buffer. […] Plates were then washed again using wash buffer. […] Plates were then washed again using wash buffer. Finally, TMB was added to develop the ELISA; TMB conversion by HRP was stopped using 1M H-Cl.

[16] = molecular target: T1, biotinylated human PD-L1; assay: avidity ELISA: biotinylated human PD-L1 at 0.2 ug/mL on neutravidin, antibody titrated (x axis IgG, nM), anti-human Fc-HRP
Method: Neutravidin was coated onto maxisorp plates at 2 μg/mL in coating buffer and incubated overnight at 4° C. The next day, plates were washed with wash buffer (PBS+0.05% Tween-20), and blocker with casein for 1 hour, at room temperature. Plates were then washed again using wash buffer. […] Plates were then washed again using wash buffer. The different antibodies were then added at various concentrations, and incubated for 1 hour at room temperature. Plates were then washed again using wash buffer. Anti-human Fc-HRP was then added and incubated for 1 hour at room temperature. Plates were then washed again using wash buffer. Finally, TMB was added to develop the ELISA; TMB conversion by HRP was stopped using 1M H-Cl.

Measured: binding

B1: anti-PD-L1 antibody H12 in IgG1 format (antibody, V domains shown)
VH: EVQLVQSGAEVKKPGASVKVSCKASGGTFSSYAISWVRQAPGQGLEWMGRIIPILGIANYAQKFQGRVTITADKSTSTAYMELSSLRSEDTAVYYCARSGHGYSYGAFDYWGQGTL
VL: QSVLTQPPSVSGAPGQRVTISCTGSSSNIGAGYDVHWYQQLPGTAPKLLIYGNSNRPSGVPDRFSGSKSGTSASLAITGLQAEDEADYYCQSYDSSLSGSYVVFGGGTKLTVL
notes: IgG1; also called H12 (IgG1); H12-IgG1
binds: [1] | [2] | [3] | [4] | [5] | [6]

B2: anti-PD-L1 antibody H12 (format not stated) (antibody, V domains shown)
VH: EVQLVQSGAEVKKPGASVKVSCKASGGTFSSYAISWVRQAPGQGLEWMGRIIPILGIANYAQKFQGRVTITADKSTSTAYMELSSLRSEDTAVYYCARSGHGYSYGAFDYWGQGTL
VL: QSVLTQPPSVSGAPGQRVTISCTGSSSNIGAGYDVHWYQQLPGTAPKLLIYGNSNRPSGVPDRFSGSKSGTSASLAITGLQAEDEADYYCQSYDSSLSGSYVVFGGGTKLTVL
not listed: [1] | [2] | [3] | [4] | [5] | [6]
binds: all other assays above

B3: anti-PD-L1 antibody H12 in IgG4 format (antibody, V domains shown)
VH: EVQLVQSGAEVKKPGASVKVSCKASGGTFSSYAISWVRQAPGQGLEWMGRIIPILGIANYAQKFQGRVTITADKSTSTAYMELSSLRSEDTAVYYCARSGHGYSYGAFDYWGQGTL
VL: QSVLTQPPSVSGAPGQRVTISCTGSSSNIGAGYDVHWYQQLPGTAPKLLIYGNSNRPSGVPDRFSGSKSGTSASLAITGLQAEDEADYYCQSYDSSLSGSYVVFGGGTKLTVL
notes: IgG4; also called H12-IgG4
binds: [6]

B4: anti-PD-L1 antibody C4 (format not stated) (antibody, V domains shown)
VH: QVQLQQSGAEVKKPGSSVKVSCKASGGTFSSYAISWVRQAPGQGLEWMGRIIPILGIANYAQKFQGRVTITADKSTSTAYMELSSLRSEDTAVYYCARGGYGGNSLYAFDIWGQGTMVTVSS
VL: QSVVTQPPSVSAAPGQKVTISCSGSSSNIGNNYVSWYQQLPGTAPKLLIYDNNERLSGIPDRFSGSKSGTSATLGISGLQTGDEADYYCGTWDSSLSVVVFGGGTKLTVL
binds: [14]
